{"source": "patent US8263147B2", "about": "“Infant formulas containing docosahexaenoic acid and lutein” (Abbott Laboratories, priority 2005, dated 2012)", "assay": "Plasma lutein concentrations in breastfed versus formula fed infants", "format": "in vivo, human", "note": "The name of at least one read-out is uncertain.", "data": [{"smiles": "CC1=C[C@H](O)CC(C)(C)[C@H]1/C=C/C(C)=C/C=C/C(C)=C/C=C/C=C(C)/C=C/C=C(C)/C=C/C1=C(C)C[C@@H](O)CC1(C)C", "note": "[lutein]", "values": [{"measurement": "bioavailability of lutein from infant formula compared with human milk", "result": "less bioavailable"}]}]}
